# Test results reported in PMC4734682, “Evidence for the Nucleo-Apical Shuttling of a Beta-Catenin Like Plasmodium falciparum Armadillo Repeat Containing Protein” (PLoS ONE, 2016).
# Results are given in words; binding and its absence hold for the method and conditions named. Tags and fused reporters may be left off the sequences shown.
# B1: Recombinant PfARO (P. falciparum Armadillo Repeats Only protein), full length, C-terminal 6-His tag (natural protein, P. falciparum (strain 3D7), UniProt C0H4A5 1-275, looked up)
# chain: MGNNCCAGRDLLYKNKLQEFGIEGSKTIRKLLSFTSNDILRFDKAYDENDVQEFVNLCSSTCEIEKLEDRMHPWAADPKTIGALSATQLAILASKENEPHYKDAIREANGIAVFINLLKSHELDRVHAAVVALSFLSVDNVKNCICMFESGALPYLISGMKSNIDGMKAACAQTCRNIFVLDKKYKKEFLKLGGITQLVNLLELPSNYDDSQPLYTQLEAIYHLEDFILNDGDEIPEFLEAVKNSNSIKNLKTLQQCPEQDLAEASNVLLLRLTD
# notes: PfARO, Plasmodium falciparum strain 3D7, PlasmoDB PF3D7_0414900; full length open reading frame of 275 amino acids amplified from 3D7 cDNA; putative NES at residues 198-204 (LVNLLEL); nine cysteines; Cloned NdeI/XhoI into pET-24b; also called rPfARO; ARM Repeats Only; source: E. coli BL21 (DE3) Codon+, purified (Ni-NTA, size exclusion chromatography on Superdex-200); not shown: His6, C-terminal, …
# Molecular target: Recombinant PfARO (P. falciparum Armadillo Repeats Only protein), full length, C-terminal 6-His tag (P. falciparum (strain 3D7)) (UniProt C0H4A5)
# Test: reducing SDS-PAGE; purified rPfARO run under reducing conditions; both purified
binder,measurement,value
B1,binding,no binding (condition: under reducing conditions)
